Data as given in publication PMC5283830, “Suppression of C9orf72 RNA repeat-induced neurotoxicity by the ALS-associated RNA-binding protein Zfp106”.
No constants are given. Whether binding was seen depends on the method and setting. Binding seen in cells or lysates may run through a third protein. Some results given as binding are weak or reduced against the parent protein; the word gives no strength.

The chains behind the UniProt entries cited, without tags or fusion partners.
UniProt O88466: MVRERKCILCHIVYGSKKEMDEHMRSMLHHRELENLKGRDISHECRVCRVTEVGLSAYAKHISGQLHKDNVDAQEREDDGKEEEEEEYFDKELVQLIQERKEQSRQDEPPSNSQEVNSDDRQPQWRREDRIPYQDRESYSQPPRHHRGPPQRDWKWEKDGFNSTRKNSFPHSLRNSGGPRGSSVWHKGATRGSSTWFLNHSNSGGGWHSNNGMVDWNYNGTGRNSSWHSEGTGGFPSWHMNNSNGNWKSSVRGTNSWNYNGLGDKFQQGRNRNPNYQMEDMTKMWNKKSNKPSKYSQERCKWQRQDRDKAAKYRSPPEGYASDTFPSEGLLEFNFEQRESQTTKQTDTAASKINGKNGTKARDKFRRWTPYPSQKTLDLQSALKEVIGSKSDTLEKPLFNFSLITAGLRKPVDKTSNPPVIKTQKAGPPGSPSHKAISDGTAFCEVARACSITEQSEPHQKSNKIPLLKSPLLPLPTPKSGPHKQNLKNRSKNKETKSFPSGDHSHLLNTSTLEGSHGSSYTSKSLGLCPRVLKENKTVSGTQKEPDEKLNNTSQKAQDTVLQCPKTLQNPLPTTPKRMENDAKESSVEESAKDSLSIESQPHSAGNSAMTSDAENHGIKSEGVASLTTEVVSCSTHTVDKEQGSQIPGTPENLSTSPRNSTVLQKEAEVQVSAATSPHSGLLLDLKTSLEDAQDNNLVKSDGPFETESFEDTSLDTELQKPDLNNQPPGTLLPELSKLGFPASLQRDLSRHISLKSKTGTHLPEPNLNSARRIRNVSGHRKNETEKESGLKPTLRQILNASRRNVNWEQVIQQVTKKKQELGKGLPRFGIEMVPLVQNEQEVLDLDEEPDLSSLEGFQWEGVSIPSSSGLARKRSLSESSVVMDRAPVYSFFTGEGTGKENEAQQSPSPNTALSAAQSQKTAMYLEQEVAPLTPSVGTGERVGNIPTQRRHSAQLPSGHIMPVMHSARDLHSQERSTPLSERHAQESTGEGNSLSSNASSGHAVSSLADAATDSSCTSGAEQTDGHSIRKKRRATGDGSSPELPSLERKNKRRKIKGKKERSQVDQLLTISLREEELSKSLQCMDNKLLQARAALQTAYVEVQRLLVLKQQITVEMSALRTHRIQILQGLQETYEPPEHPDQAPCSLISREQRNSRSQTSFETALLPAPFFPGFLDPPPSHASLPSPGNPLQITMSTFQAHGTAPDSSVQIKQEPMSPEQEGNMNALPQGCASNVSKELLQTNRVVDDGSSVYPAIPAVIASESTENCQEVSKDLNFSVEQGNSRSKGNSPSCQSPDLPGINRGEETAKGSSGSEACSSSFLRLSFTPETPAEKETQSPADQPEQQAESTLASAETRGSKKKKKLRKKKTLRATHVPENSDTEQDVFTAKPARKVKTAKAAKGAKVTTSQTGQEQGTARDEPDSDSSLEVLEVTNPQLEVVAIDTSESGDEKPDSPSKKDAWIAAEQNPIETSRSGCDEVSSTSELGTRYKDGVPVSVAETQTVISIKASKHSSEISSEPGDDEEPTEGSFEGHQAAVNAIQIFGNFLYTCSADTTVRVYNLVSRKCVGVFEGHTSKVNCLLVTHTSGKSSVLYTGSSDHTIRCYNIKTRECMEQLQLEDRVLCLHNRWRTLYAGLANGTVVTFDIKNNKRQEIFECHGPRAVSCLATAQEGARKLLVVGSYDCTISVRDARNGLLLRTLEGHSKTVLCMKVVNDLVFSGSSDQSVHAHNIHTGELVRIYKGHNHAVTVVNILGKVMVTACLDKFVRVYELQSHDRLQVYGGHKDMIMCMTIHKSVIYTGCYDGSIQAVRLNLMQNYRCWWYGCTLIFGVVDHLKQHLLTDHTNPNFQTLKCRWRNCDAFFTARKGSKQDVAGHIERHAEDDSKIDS
UniProt Q921F2: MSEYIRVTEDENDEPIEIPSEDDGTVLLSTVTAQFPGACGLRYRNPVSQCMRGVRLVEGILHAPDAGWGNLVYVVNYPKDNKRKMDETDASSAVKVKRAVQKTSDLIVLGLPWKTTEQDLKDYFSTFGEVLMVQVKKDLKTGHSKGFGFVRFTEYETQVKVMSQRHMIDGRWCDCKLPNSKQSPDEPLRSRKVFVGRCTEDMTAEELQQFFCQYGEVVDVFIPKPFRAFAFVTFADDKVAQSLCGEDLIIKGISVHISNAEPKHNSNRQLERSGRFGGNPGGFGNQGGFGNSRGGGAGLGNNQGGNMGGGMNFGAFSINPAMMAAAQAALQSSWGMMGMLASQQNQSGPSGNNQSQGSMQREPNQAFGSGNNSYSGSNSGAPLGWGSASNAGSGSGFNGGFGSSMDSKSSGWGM

B1: Nup107 (protein, UniProt Q8BH74 1-926)
chain: MDRSGFGGMSSPVIRDAEVTRTARKHSAHKRVLIQANQEDNFGTATPRSQIIPRTPSSFRQPFVTPSSRSLLRHPDISYILGTEGRSPRHTQSSGYLGNLSMVTNLDDSNWAAAFSSQRLGLYTNTEHHSMTEDVNLSTVMLREDDPGEAASMSMFSDFLHSFLKHSSTTVFDLVEEYENICGSQVNILSKIVSRATPGLQKFSKTASMLWLLQQEMVTWRLLASLYRDRIQSSLEEENMFAIAGINASEKMVVETLFQRDSLVRQSQLVVDWLESIAKDEIGEFSDNIEFYAKSVYWENTLHSLKQRQLLSHMGSTRPLVTELDPDAPIRQKLPLDDLDREDEVRLLKYLFTLIRAGMTEEAQRLCKRCGQAWRAATLEGWKLYHDPNVNGGTELEPVEGNPYRRIWKISCWRMAEDELFNKYERAIYAALSGNLKQLLPVCDTWEDTVWAYFRVMVDSLVEQEIRTSVMTQDDSEELPREYMEANWTLEKVFEELQATDKKRVLEENQEHYHIVQKFLILGDVDGLMDEFSKWLSKSGSSLPGHLLRFMTHLILFLRTLGLQTKEEVSIEVLKTYIQLLISEKHTSLIAFYTCHLPQDLAVAQYALFLEGVTEFEQRHQCLELAKEADLDVATITKTVVENICKKDNGEFSHHDLAPSLDTGTTEEDRLKIDVIDWLVFDPAQRAEALRQGNAIMRKFLALKKHEAAKEVFVKIPQDSIAEIYNQWEEQGMESPLPAEDDNAIREHLCIRAYLEAHETFNEWFKHMNSAPQKPTLLSQATFTEKVAYEHREKKYEMDHNIWKGHLDALTADVKEKMYNVLLFVDGGWMVDVREDAEDDPERTHQMVLLRKLCLPMLCFLLHTILHSTGQYQECLQLADMVSSERHKLYLVFSKEELRKLLQKLRESSLMLLDQGLDPLGYEIQS

Target: 3×FLAG-2×STREP-Zfp106 (mouse) (UniProt O88466)
Test: co-IP; Neuro-2a cells transfected with 3×FLAG-2×STREP-Zfp106 or parental vector; lysis with 100 U/ml benzonase, NaCl raised to 150 mM; anti-FLAG(M2) magnetic beads 4 hr at 4°C; western blot for endogenous TDP-43 and Nup107

Molecule	binding
TDP43 (from UniProt Q921F2 1-414)	binds
B1	binds
